Library screen at single concentrations

The chains behind the UniProt entries cited, without tags or fusion partners.
UniProt P9WPC5, whole entry: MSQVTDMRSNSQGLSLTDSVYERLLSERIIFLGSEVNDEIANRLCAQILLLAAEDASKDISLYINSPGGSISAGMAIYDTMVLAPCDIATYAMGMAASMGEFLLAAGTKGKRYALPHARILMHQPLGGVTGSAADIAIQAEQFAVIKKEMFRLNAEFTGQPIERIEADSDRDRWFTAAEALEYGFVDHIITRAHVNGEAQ
UniProt P9WPC3, whole entry partner: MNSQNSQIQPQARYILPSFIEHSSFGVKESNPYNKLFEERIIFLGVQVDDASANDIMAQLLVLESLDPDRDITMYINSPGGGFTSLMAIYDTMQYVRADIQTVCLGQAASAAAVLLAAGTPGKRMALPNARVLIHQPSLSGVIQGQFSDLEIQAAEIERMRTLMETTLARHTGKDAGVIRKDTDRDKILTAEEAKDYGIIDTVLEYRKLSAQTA

Measurements from “University of Dundee, Small-Polar-MMV Screening Library” (2021), ChEMBL document CHEMBL3988442.

Values are the deposited “Percent Effect”, in %.
The controls that fix the scale are not given in the record; negative values are as filed.
This is an unselected part of the compounds tested.

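ClpP1P2, Mycobacterium tuberculosis (UniProt P9WPC5 and UniProt P9WPC3). Protease assay of ClpP1P2, read by the AMC dye that it sets free. Concentration: 50 µM. Higher reads as stronger inhibition, judged from the few compounds that gave an IC50. Most other retested compounds had strongly negative values. About 69,000 compounds were tested under these conditions; 0.015% (about 10) showed 50% or more at least once.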

Compound | Percent Effect
Cc1n[nH]c(C)c1CCC(=O)NC1CCCN(c2ccccc2F)C1 (stereo not given) | -11.18
COCC1CN(Cc2ccc(C)s2)Cc2nnn(C)c21 (stereo not given) | -4.239
COC(=O)C(CNC(=O)Nc1nncs1)Cc1ccc(O)cc1 (stereo not given) | -1.29
NS(=O)(=O)c1cccc(CNc2nccc(C(F)(F)F)n2)c1 | -23.84
CN(C)C(=O)[C@@H]1CCO[C@@H]2CCN(CCc3ccccc3)C[C@@H]21 | 1.803
COc1cccc(OC2CN(C(=O)c3c(C)noc3C)C2)c1 | 2.353
O=C1N(c2cccnc2)CCC12CCCN(Cc1ccco1)C2 (stereo not given) | -9.204
Cc1cc(C)c2c(N3CCC(O)(Cn4ccnc4)CC3)ncnc2n1 | -0.6001
CC(C)(C)C(O)CN1CCN(C(=O)c2cccc3[nH]ncc23)CC1 (stereo not given) | 17.67
CCC1CN(C(=O)c2ccccc2N(C)C)CCN1C(C)C (stereo not given) | -12.81
CC(C)(C)CC(=O)NCC(=O)Nc1ccn(Cc2ccncc2)n1 | -20.2
Cc1cc(NCC(=O)N(C)Cc2cccs2)c(C(N)=O)cc1F | -75.58
CC(OCC1CC1)C(=O)N1CCCN(Cc2nccn2C)CC1 (stereo not given) | 5.188
CN1CC(c2ccccc2)CC2(CCN(C(=O)c3ccccc3)CC2)C1 (stereo not given) | -1.342
COc1cc(OC)cc(C(=O)N2CCOCC2c2[nH]ncc2C)c1 (stereo not given) | 1.766
Cc1cc(Br)oc1C(=O)N1CCCN(CC(N)=O)CC1 | 1.163
CN(C)C(C(=O)N1CCCN(C(=O)C2CCC2)CC1)c1ccccc1F (stereo not given) | -5.989
CC(Cn1ccnc1)NC(=O)N(C)Cc1ccc2c(c1)OCCO2 (stereo not given) | -21.95
CC(C)(C)C(=O)NCCC(=O)N1CCC(Nc2cccnn2)CC1 | -22.22
CCNc1nc(C(=O)N(C)Cc2nc(CC)no2)cs1 | -9.266
O=C1CCCN1CCN1CC[C@@]2(O)CCN(c3ncccn3)C[C@H]2C1 | -35.9
Cn1cc(CC(CNC(=O)Nc2cccc(Cl)c2)C(N)=O)cn1 (stereo not given) | -1.073
O=C(COc1cccc(Cl)c1)N1CCOCC(O)(CN2CCCC2)C1 (stereo not given) | -8.019
CC(C)(O)CCc1ccc(C(=O)NCCC2CCOC2)cc1 (stereo not given) | -10.08
O=C(c1coc(COc2cccc3cnccc23)n1)N1CCSCC1 | -10.9
Cc1ccc2c(C)c(C(=O)NCCc3csc(N)n3)oc2c1 | 5.541
CCc1nc(N2CCC3(CC2)CC(=O)N(Cc2ccc(Cl)cc2)C3)no1 | 11.14
CC(=O)N1CC[C@H]2CC(=O)N(Cc3ccc4c(c3)OCO4)CC[C@H]2C1 | -3.05
CCc1n[nH]c(C2CN(Cc3ncc(CC)o3)CCO2)n1 (stereo not given) | 4.707
Cc1cc(CN2CCN(C(C)c3nc(C4CC4)no3)CC2)no1 (stereo not given) | 7.608
COc1ccccc1N1CCC(CNCc2cccc(C#N)c2)C1 (stereo not given) | 10.21
CC(c1nc(-c2ccccc2)no1)N1CCc2c(ncn2C2CC2)C1 (stereo not given) | 11.36
COc1ccc([C@@H]2CN(C(=O)CS(C)(=O)=O)C[C@H]2NC(C)=O)cc1 | -13.65
Cc1cn2c(n1)CCC(NC(=O)CNS(C)(=O)=O)C2 (stereo not given) | 2.578
CC1CCN(CCNC(=O)c2ccccc2N2CCOCC2)CC1 | 7.189
COCCn1cc(C(=O)N2CCCC2c2cccc(C)c2)ccc1=O (stereo not given) | -12.42
CCC1c2ccsc2CCN1C(=O)NCc1cccnc1N(C)C (stereo not given) | -11.6
COc1ccccc1C(C)(C)NCc1ccco1 | 1.591
O=S(=O)(N[C@H]1CC[C@H]1NC1Cc2ccccc2C1)c1cccnc1 | 9.115
COC(CNC(=O)NCc1c(C)cc(C)[nH]c1=O)c1ccccc1 (stereo not given) | -4.314
Cn1cc(CN2CCCCC2c2ccc(-c3cccc(Cl)c3)nc2)cn1 (stereo not given) | -19.5
COc1ccc(-c2n[nH]cc2CN(C)Cc2ccoc2)c(F)c1 | -5.705
c1ccc(CN2CCN(C3CCOC4(CCOCC4)C3)CC2)nc1 (stereo not given) | 0.1983
CNC(=O)COc1cccc(CNCc2c(C)noc2C)c1 | 1.666
CCN(CC)c1ccc(CNC(=O)C2(C)CCOCC2)cc1F | 4.268
CCCc1nnc(N2CCC3(CCC(=O)N(C)C3)CC2)o1 | 3.574
CCS(=O)(=O)c1ccccc1N1CCC(NC(=O)c2ccc[nH]2)CC1 | 4.917
CC(C)Nc1nc2c(c(N(C)C)n1)CCN(Cc1nccn1C)CC2 | 14.12
Cc1ccc(F)cc1NC(=O)c1[nH]ncc1Br | -8.152
Cc1cnc(CN2CCCC2c2noc(C(C)C)n2)cn1 (stereo not given) | -20.15
CC[C@@H]1N(Cc2ccc(C)o2)CCC[C@]12CCC(=O)N2CCOC | 5.002
Cc1cnc(C)c(N2CCC(Cc3ccccc3Cl)(C(=O)O)CC2)n1 | 4.032
O=C(c1ccco1)N1CC[C@@H]2[C@H]1CCC(=O)N2c1ccccc1 | 14.1
O=C(c1cc2ccccc2c(=O)[nH]1)N1CCN(CCO)CC1 | -8.275
Cc1cccc(N(CCC(N)=O)C(=O)c2cc(-n3cccn3)ccn2)c1 | -2.545
COC(=O)c1ccc(N2CCC(N(C)c3ccccc3)CC2)nn1 | -0.1691
Cc1cc2c(cc1Cl)C=CC1(CCN(CC(=O)N3CCCC3)CC1)O2 | -38.16
COC(=O)[C@H](C)NC(=O)COc1nn(C)c2nc(C)cc(C)c12 | -3.446
CC(C)C(=O)NCCCn1ncc2c(Cl)cccc21 | -7.951
Cc1ccc(CN2CCCn3c(nc(CN4CCCC4)cc3=O)C2)s1 | -10.67
Cc1ccc2[nH]c(CO[C@H]3CN(C(=O)C4CC4)C[C@H]3F)nc2c1 | -1.535
Cc1ccoc1C(=O)N1CCNCC1C(=O)NCc1ccncc1 (stereo not given) | -2.439
O=C(COC[C@@]12CCC[C@@H]1CN(C1CCC1)C2)N1CCCC1 | -1.778
c1cnc(N2CCC(c3nccn3CC3CC3)CC2)nc1 | -8.048
CCN(CC)Cc1cn2c(n1)CN(C1CCOC1)CC2 (stereo not given) | 10.64
Cc1noc(C)c1C(=O)N1C[C@@H]2COC[C@]2(COc2ccccn2)C1 | 5.244
CCOc1ccccc1C(N)CC(C)C (stereo not given) | 2.509
CN1CCCc2sc(C(=O)NC3CC3)nc21 | -9.907
CCc1noc(C)c1C(=O)NCc1c(C)nn(CCOC)c1C | 2.225
CCn1c(C)nnc1SCCNC(=O)Cn1cnc2ccccc2c1=O | 4.716
OCC1(O)CCCN(Cc2ccc(-c3cc[nH]n3)s2)CC1 (stereo not given) | -3.743
CN(C)CCn1c2c(ccc1=O)CC(NC(=O)c1ccsc1)CC2 (stereo not given) | 8.439
COC(=O)N1C[C@H]2CC[C@@H]1CN(Cc1cscn1)C2 | -9.906
CC(C)(C)c1ccc2c(c1)CCN2C(=O)c1[nH]c(=O)[nH]c(=O)c1N | -1.652
Cc1cc(-c2nnc(SCC(=O)O)n2C(C)c2ccccc2)nn1C (stereo not given) | -2.532
Cc1nn(COc2cccc(F)c2)c(C)c1NC(=O)C1CC1 | -17.92
CCC1=N[C@@]2(CC[C@@H]3CN(S(=O)(=O)CC(C)C)C[C@@H]32)C(=O)N1CC | 4.771
O=C(NCCn1nc2ccccn2c1=O)c1scnc1Cl | -11.29
CC(Oc1ccccc1C#N)C(=O)NC1CC1 (stereo not given) | 14.52

For reference, 7 entries once more:

| Compound | Percent Effect |
|---|---|
| `CC(C)(C)CC(=O)NCC(=O)Nc1ccn(Cc2ccncc2)n1` | -20.2 |
| `CC[C@@H]1N(Cc2ccc(C)o2)CCC[C@]12CCC(=O)N2CCOC` | 5.002 |
| `Cc1ccc(F)cc1NC(=O)c1[nH]ncc1Br` | -8.152 |
| `COc1cc(OC)cc(C(=O)N2CCOCC2c2[nH]ncc2C)c1` (stereo not given) | 1.766 |
| `CCN(CC)Cc1cn2c(n1)CN(C1CCOC1)CC2` (stereo not given) | 10.64 |
| `c1ccc(CN2CCN(C3CCOC4(CCOCC4)C3)CC2)nc1` (stereo not given) | 0.1983 |
| `Cc1cn2c(n1)CCC(NC(=O)CNS(C)(=O)=O)C2` (stereo not given) | 2.578 |